Experimental data reported in publication PMC6345825, “Crystal structure of the plant symporter STP10 illuminates sugar uptake mechanism in monosaccharide transporter superfamily” (Nature Communications, 2019).
Results are given in words; binding and its absence hold for the method and conditions named.

Biological target: Arabidopsis thaliana Sugar Transport Protein STP10 (Arabidopsis thaliana) (UniProt Q9LT15)
Assay: crystal structure; lipidic cubic phase (monoolein/cholesterol), 100 mM D-glucose, 0.1 M NaCitrate pH 4.5, 20 °C; space group P21, one STP10 monomer in the asymmetric unit; both purified

binding: no binding
B1: Arabidopsis thaliana Sugar Transport Protein STP10 (protein, UniProt Q9LT15 1-514)
chain: MAGGAFVSEGGGGGRSYEGGVTAFVIMTCIVAAMGGLLFGYDLGISGGVTSMEEFLTKFFPQVESQMKKAKHDTAYCKFDNQMLQLFTSSLYLAALVASFMASVITRKHGRKVSMFIGGLAFLIGALFNAFAVNVSMLIIGRLLLGVGVGFANQSTPVYLSEMAPAKIRGALNIGFQMAITIGILVANLINYGTSKMAQHGWRVSLGLAAVPAVVMVIGSFILPDTPNSMLERGKNEEAKQMLKKIRGADNVDHEFQDLIDAVEAAKKVENPWKNIMESKYRPALIFCSAIPFFQQITGINVIMFYAPVLFKTLGFGDDAALMSAVITGVVNMLSTFVSIYAVDRYGRRLLFLEGGIQMFICQLLVGSFIGARFGTSGTGTLTPATADWILAFICVYVAGFAWSWGPLGWLVPSEICPLEIRPAGQAINVSVNMFFTFLIGQFFLTMLCHMKFGLFYFFASMVAIMTVFIYFLLPETKGVPIEEMGRVWKQHWFWKKYIPEDAIIGGHDDNNTN
